In the supplement of paper PMC12282887:
These are raw signals, not scaled to a control.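 The top concentration was set near the MIC for antimicrobials, at 500 µM for most other compounds, and up to 1 mM for known inducer-like compounds. Deletion strains started from a tenfold smaller inoculum, and wells growing below 10% of the overall median were treated as non-growing.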

System: Escherichia coli BW25113
Assay: growth (OD600 area under curve, 8 h) (OD600 x h); higher = more growth
Description: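 E. coli BW25113 reporter strains (wild type, ΔmarA, ΔsoxS, Δrob, each carrying one of 8 lux reporter plasmids) were grown in 40 µl LB in 384-well plates at 37°C, 800 rpm, with each compound at 4 two-fold concentrations, in biological duplicates. Growth is the baseline-corrected OD600 area under the curve over 8 h (0-8 h WT, 1-9 h deletion strains).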

CC1(C)S[C@@H]2[C@H](NC(=O)Cc3ccccc3)C(=O)N2[C@H]1C(=O)O [Penicillin G]
growth
Settings | reporter plasmid: EVC | reporter plasmid: acrABp | reporter plasmid: marRABp | reporter plasmid: micFp | reporter plasmid: ompFp | reporter plasmid: robp | reporter plasmid: soxSp | reporter plasmid: tolCp
0.47 µg/ml, genetic background: wild type | 3.228 | 3.33 | 3.32 | 3.25 | 3.193 | 3.43 | 3.135 | 3.26
0.47 µg/ml, genetic background: ΔmarA | 3.27 | 4.43 | 3.81 | 3.17 | 3.53 | 3.91 | 2.81 | 2.97
0.47 µg/ml, genetic background: Δrob | 2.93 | 3.29 | 3.42 | 3.15 | 2.61 | 2.94 | 2.94 | 3.27
0.47 µg/ml, genetic background: ΔsoxS | 3.38 | 3.09 | 3.37 | 3.027 | 3.21 | 3.36 | 3.27 | 3.21
0.93 µg/ml, genetic background: wild type | 3 | 3.14 | 3.14 | 3.22 | 3.09 | 3.22 | 3.19 | 3.28
0.93 µg/ml, genetic background: ΔmarA | 3.05 | 4.21 | 3.92 | 3.32 | 3.75 | 3.94 | 2.79 | 2.96
0.93 µg/ml, genetic background: Δrob | 3.02 | 2.86 | 3.42 | 3.21 | 2.33 | 2.69 | 2.77 | 3.33
0.93 µg/ml, genetic background: ΔsoxS | 3.29 | 3.176 | 3.1 | 2.97 | 3.15 | 2.94 | 3.12 | 3.27
1.9 µg/ml, genetic background: wild type | 3.124 | 3.47 | 3.56 | 3.16 | 3.47 | 3.62 | 3.12 | 3.17
1.9 µg/ml, genetic background: ΔmarA | 3.39 | 4.46 | 3.98 | 3.07 | 3.73 | 4.19 | 2.99 | 3.12
1.9 µg/ml, genetic background: Δrob | 2.93 | 3.39 | 3.67 | 3.27 | 2.7 | 2.96 | 3.02 | 3.29
1.9 µg/ml, genetic background: ΔsoxS | 3.11 | 3.58 | 3.37 | 2.83 | 3.33 | 3.2 | 3.27 | 3.25
3.7 µg/ml, genetic background: wild type | 3.05 | 2.93 | 3.27 | 3.19 | 2.87 | 2.62 | 2.89 | 3.2
3.7 µg/ml, genetic background: ΔmarA | 3.01 | 4.05 | 3.51 | 3.16 | 3.46 | 3.68 | 2.8 | 2.9
3.7 µg/ml, genetic background: Δrob | 2.87 | 2.89 | 3.21 | 2.85 | 2.12 | 2.65 | 2.64 | 3.22
3.7 µg/ml, genetic background: ΔsoxS | 3.3 | 3.21 | 3.1 | 2.681 | 2.6 | 2.94 | 3.12 | 3.21
